Test results reported in the supplement of paper PMC10849652.
The other results are listed elsewhere or left out. Residues, ends and D or L forms follow the SMILES beside them. *: point of attachment. Cbz = O=C(OCc1ccccc1)*

Amino acid sequences for entries named in this document (tags omitted). A change or cut given only in a name is not applied to a line headed by its entry.
UniProt Q6RW13: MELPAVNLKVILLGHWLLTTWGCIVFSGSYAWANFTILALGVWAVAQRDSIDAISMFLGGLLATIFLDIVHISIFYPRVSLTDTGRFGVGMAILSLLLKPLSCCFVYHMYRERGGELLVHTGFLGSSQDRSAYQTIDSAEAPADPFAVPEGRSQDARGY
UniProt Q8N142: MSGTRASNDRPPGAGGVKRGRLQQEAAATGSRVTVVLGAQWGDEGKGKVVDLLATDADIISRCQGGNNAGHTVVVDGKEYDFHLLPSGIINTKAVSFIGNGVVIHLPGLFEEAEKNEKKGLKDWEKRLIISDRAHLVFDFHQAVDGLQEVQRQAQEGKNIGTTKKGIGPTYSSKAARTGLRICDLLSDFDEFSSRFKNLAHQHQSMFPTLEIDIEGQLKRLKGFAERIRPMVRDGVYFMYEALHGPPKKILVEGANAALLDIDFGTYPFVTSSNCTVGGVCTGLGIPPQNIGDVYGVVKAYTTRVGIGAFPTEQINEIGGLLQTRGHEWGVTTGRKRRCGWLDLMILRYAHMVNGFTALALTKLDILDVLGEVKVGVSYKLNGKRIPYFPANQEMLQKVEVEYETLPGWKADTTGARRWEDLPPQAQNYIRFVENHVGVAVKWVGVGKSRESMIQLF
UniProt Q6ULP2: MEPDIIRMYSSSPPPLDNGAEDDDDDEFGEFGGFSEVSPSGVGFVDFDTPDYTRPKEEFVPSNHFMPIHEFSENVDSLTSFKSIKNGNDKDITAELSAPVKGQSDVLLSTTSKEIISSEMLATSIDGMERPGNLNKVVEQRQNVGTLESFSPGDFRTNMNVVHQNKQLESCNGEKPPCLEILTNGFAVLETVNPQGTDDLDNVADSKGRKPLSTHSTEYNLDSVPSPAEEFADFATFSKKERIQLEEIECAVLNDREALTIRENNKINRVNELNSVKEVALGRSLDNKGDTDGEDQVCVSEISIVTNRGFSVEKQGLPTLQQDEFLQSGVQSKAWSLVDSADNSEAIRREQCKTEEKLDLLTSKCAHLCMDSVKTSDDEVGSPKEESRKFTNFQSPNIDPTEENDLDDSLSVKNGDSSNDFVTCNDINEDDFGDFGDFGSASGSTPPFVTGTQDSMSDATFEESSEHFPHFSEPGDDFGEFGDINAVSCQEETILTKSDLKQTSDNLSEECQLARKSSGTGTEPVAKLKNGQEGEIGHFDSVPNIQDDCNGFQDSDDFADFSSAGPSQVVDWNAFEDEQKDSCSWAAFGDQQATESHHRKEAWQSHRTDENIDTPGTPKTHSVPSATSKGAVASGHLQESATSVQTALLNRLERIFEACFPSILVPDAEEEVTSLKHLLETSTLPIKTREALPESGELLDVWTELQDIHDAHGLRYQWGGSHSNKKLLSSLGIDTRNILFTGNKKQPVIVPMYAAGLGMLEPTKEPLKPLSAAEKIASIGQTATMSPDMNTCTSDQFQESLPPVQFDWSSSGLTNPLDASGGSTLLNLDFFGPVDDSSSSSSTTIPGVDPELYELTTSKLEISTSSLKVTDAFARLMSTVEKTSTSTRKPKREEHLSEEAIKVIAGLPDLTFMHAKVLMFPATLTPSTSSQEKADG
UniProt P30566: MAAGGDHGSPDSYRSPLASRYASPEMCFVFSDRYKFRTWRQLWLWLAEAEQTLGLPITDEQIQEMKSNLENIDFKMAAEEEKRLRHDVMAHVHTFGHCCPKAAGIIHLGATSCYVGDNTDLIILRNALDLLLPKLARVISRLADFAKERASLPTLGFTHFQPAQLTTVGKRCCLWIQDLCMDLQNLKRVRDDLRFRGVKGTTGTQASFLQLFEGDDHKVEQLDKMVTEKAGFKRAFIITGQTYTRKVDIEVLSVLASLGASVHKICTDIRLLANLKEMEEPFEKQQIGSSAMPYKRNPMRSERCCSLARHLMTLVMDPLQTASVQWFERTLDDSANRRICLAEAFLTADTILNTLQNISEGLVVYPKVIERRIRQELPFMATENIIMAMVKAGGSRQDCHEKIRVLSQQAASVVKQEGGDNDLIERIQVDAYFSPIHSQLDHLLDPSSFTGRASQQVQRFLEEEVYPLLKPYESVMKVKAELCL
UniProt P04075: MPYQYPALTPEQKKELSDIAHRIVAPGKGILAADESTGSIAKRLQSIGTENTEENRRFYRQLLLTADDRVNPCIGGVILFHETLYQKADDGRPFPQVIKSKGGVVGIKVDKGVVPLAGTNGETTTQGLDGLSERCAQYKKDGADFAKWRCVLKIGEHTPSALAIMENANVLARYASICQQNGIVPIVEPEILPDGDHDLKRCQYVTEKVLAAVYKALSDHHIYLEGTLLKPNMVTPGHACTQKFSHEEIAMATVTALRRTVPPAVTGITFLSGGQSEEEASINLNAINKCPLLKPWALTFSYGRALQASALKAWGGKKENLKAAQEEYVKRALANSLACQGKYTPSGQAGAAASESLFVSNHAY
UniProt Q9NP73: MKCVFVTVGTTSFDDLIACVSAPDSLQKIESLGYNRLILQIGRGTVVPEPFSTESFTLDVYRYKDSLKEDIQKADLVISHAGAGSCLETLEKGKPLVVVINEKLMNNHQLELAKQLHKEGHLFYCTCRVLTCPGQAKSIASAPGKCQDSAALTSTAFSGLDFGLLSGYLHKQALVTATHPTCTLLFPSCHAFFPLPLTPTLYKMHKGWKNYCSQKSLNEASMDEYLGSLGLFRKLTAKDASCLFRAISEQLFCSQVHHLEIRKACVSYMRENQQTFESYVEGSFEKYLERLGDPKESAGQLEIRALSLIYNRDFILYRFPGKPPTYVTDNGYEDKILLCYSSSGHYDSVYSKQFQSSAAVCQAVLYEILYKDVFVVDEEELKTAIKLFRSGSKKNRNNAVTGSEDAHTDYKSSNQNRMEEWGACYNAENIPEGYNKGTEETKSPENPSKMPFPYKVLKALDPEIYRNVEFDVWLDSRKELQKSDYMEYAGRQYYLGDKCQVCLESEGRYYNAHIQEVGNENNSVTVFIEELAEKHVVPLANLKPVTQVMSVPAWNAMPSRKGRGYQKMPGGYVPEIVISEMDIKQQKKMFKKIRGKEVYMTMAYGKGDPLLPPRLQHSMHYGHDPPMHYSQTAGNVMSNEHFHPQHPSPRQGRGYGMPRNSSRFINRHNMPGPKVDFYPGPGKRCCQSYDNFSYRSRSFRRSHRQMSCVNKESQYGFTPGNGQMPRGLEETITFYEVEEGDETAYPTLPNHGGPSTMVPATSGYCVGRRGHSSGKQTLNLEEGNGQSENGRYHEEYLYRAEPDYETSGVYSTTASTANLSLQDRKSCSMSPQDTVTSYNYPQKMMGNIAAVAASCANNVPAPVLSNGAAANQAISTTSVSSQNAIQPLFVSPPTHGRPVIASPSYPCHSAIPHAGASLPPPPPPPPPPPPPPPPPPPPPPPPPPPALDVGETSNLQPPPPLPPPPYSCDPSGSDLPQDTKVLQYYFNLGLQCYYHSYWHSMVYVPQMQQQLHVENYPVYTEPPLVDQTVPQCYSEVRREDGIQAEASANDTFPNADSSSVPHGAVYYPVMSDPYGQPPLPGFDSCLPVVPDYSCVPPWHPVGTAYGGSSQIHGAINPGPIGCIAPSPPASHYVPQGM
UniProt Q9Y4W6: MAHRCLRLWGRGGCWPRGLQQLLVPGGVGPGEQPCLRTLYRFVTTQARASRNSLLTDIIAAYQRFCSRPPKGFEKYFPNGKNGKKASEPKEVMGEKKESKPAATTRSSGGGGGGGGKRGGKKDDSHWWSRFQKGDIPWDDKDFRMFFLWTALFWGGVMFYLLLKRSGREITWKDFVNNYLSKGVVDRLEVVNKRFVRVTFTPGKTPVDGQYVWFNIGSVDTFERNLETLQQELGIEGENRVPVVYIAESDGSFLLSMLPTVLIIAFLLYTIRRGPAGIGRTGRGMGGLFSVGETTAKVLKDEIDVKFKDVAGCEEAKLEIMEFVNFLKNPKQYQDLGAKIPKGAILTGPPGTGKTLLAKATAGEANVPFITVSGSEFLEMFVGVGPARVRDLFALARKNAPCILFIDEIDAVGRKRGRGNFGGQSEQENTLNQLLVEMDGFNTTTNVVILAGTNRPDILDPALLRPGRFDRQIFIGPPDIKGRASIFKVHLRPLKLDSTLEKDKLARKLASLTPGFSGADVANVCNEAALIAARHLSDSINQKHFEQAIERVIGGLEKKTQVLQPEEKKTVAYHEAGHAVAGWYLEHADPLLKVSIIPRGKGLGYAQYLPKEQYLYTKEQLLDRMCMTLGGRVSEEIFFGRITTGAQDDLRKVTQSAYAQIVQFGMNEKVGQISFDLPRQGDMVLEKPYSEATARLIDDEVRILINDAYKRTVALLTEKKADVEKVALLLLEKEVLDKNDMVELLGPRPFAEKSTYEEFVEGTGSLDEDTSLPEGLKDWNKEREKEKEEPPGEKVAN
UniProt P02771: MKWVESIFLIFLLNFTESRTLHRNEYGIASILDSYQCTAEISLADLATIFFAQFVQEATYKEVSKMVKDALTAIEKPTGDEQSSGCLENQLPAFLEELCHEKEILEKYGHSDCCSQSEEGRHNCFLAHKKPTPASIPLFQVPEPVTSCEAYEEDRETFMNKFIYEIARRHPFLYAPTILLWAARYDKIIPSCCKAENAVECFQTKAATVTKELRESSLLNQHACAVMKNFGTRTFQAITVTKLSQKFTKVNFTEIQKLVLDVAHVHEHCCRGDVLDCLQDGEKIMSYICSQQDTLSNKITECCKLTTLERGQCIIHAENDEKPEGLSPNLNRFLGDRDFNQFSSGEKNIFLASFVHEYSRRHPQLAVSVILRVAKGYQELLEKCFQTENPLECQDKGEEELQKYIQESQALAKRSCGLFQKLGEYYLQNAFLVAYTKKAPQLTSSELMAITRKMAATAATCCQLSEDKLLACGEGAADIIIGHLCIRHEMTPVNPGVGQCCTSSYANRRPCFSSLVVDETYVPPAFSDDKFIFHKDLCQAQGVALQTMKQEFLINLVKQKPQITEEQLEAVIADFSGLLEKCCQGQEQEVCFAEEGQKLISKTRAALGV
UniProt P30520: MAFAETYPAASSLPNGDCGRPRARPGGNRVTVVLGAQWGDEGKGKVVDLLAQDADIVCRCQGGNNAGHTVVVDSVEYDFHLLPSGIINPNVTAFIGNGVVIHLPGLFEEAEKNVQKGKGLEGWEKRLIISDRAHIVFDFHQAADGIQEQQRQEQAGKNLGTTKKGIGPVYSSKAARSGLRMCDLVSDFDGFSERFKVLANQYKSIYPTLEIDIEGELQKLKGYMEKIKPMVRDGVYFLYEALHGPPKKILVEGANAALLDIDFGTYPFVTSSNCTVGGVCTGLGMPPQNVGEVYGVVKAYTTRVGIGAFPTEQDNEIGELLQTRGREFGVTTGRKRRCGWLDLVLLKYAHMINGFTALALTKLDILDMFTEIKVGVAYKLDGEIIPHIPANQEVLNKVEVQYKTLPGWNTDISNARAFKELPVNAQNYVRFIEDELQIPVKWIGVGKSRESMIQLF
UniProt Q9BV57: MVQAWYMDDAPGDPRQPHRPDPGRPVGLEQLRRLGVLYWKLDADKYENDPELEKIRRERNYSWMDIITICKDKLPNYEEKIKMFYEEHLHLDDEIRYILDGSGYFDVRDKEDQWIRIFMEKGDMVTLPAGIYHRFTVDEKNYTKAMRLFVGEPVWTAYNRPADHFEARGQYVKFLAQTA
UniProt Q01433: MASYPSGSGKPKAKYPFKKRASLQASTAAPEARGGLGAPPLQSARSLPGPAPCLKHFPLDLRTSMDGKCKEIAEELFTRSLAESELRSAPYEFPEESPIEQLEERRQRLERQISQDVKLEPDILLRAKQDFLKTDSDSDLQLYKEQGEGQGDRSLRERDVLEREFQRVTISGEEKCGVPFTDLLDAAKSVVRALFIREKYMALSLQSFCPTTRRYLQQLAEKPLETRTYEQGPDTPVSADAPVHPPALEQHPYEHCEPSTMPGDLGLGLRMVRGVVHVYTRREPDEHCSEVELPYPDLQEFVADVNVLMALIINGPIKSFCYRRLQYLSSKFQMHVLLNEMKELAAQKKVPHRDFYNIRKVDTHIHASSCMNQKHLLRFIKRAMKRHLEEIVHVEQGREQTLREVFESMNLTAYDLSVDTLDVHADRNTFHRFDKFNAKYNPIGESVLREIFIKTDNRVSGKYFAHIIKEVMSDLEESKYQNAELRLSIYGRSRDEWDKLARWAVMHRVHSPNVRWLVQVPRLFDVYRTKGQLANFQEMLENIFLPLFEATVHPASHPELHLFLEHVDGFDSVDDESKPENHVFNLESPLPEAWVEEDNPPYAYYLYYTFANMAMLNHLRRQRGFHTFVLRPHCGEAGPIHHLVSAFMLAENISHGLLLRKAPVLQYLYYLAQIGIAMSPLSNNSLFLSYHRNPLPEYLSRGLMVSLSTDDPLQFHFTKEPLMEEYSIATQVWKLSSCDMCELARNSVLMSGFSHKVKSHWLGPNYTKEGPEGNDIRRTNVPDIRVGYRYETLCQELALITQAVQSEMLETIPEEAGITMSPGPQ

Legend:
Assay in all cases: log2 fold change, soluble protein after heating vs DMSO (PISA); higher = thermal stabilisation; K562 cells, 10 uM, 30 min; active = over 0.2 and 3.5 SD of the protein, either way, in both replicates (recomputed)
[1] = compound: C1COCCN1CCN2C3=CC=CC=C3N=C2NC(=O)C4=CC(=CC=C4)[N+](=O)[O-] [IRAK-1-4 Inhibitor I]
How it was run: (§1)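 Soluble protein was defined as the supernatant after 21,000xg for 90 min. It came from K562 cells at 2×10^6 cells/mL given 10 μM compound for 30 min, heated in aliquots for 3 min across 48°C-58°C, pooled, and extracted in PBS with 0.5% NP-40 at 4°C, and was quantified by TMTpro 16plex LC-MS/MS with equalised channel sums. Thermal stability against control samples, from duplicates, is reported as log2 fold change.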

[2] = compound: C=CC(=O)N1CCC[C@@H](n2nc(-c3ccc(Oc4ccccc4)cc3)c3c(N)ncnc32)C1 [ibrutinib]
How it was run: as §1

[3] = compound: CC(=O)c1cnc2ccc(-c3cc(Cl)c(O)c(Cl)c3)nc2c1N[C@H]1CC[C@H](CN(C)C)CC1
How it was run: as §1

[4] = compound: CC(C)(C)Cn1c(N)nc2ccc(-c3[nH]c(C(C)(C)C)nc3-c3ccc(F)cc3)nc21 [ralimetinib]
How it was run: as §1

[5] = compound: CC(C)(O)CC(=O)NCCn1ccc2ncnc(Nc3ccc(Oc4cccc(C(F)(F)F)c4)c(Cl)c3)c21
How it was run: as §1

[6] = compound: CC(C)C1=C2N=C(C=C(N2N=C1)NCC3=CC=CC=C3)NCCCCCCN
How it was run: as §1

[7] = compound: CC(C)C[C@@H](C=O)NC(=O)[C@H](CC(C)C)NC(=O)[C@H](CC(C)C)NC(=O)OCc1ccccc1
How it was run: as §1

[8] = compound: CC(C)N(C[C@H]1O[C@@H](n2cnc3c(N)ncnc32)[C@H](O)[C@@H]1O)[C@H]1C[C@@H](CCc2nc3cc(C(C)(C)C)ccc3[nH]2)C1 [pinometostat]
How it was run: as §1

[9] = compound: CC1=C(C(CC(=O)N1)C2=CC=C(C=C2)C(F)(F)F)C(=O)NC3=C(C=C4C(=C3)C=NN4)F
How it was run: as §1

[10] = compound: CC1=C(C2=C(C=C1)C(=O)C3=CC=CC=C3N2CCCN)C
How it was run: as §1

[11] = compound: CC1=C(C=C(C=C1)NC(=O)C2=CC(=CC=C2)C(C)(C)C#N)NC3=CC4=C(C=C3)N=CN(C4=O)C
How it was run: as §1

[12] = compound: CC1=C(C=C(C=C1)NC(=O)C2=CC(=CC=C2)N(C)C)NC(=O)C3=CC=C(C=C3)O
How it was run: as §1

[13] = compound: CC1=CC=C(C=C1)SC2=C3C=C(SC3=CN=C2)C(=O)N
How it was run: as §1

[14] = compound: CC1=NC(=CC=C1)C2=C(N=C(N2)C(C)(C)C)C3=CC4=NC=CN=C4C=C3
How it was run: as §1

[15] = compound: CCCCN(Cc1ccc(C(=O)NO)cc1)C(=O)Nc1ccccc1 [Nexturastat A]
How it was run: as §1

[16] = compound: CCCS(=O)(=O)Nc1ccc(F)c(C(=O)c2c[nH]c3ncc(-c4ccc(Cl)cc4)cc23)c1F [vemurafenib]
How it was run: as §1

[17] = compound: CCCS(=O)(=O)Nc1ccc(F)c(C(=O)c2c[nH]c3ncc(Cl)cc23)c1F
How it was run: as §1

[18] = compound: CCCc1cc(C)[nH]c(=O)c1CNC(=O)c1cc(-c2ccnc(N3CCN(C)CC3)c2)cc2c1cnn2C(C)C
How it was run: as §1

[19] = compound: CCN(CC)Cc1ccc2cc(COC(=O)Nc3ccc(C(=O)NO)cc3)ccc2c1 [givinostat]
How it was run: as §1

[20] = compound: CCN(CCCOc1ccc2c(Nc3cc(CC(=O)Nc4cccc(F)c4)[nH]n3)ncnc2c1)CCOP(=O)(O)O [barasertib]
How it was run: as §1

Measured: log2 fold change

AGTRAP (UniProt Q6RW13)
inactive: [1] 0.009 | [2] -0.042 | [3] -0.125 | [4] -0.062 | [5] -0.023 | [6] -0.059 | [7] 0.066 | [8] 0.016 | [9] -0.051 | [10] 0.13 | [11] -0.027 | [12] 0.097 | [13] 0.01 | [14] -0.108 | [15] 0 | [16] 0.075 | [17] 0.006 | [18] -0.148 | [19] -0.082 | [20] -0.023

AHCYL2 (UniProt Q96HN2)
inactive: [1] 0.008 | [2] -0.028 | [3] 0.165 | [4] -0.085 | [5] 0 | [6] 0.101 | [7] 0.013 | [8] -0.013 | [9] -0.013 | [10] -0.014 | [11] -0.038 | [12] -0.017 | [13] 0.047 | [14] -0.02 | [15] -0.025 | [16] -0.048 | [17] -0.014 | [18] -0.018 | [19] -0.024 | [20] 0.007

ADSS1 (UniProt Q8N142)
inactive: [1] 0.035 | [2] 0 | [3] -0.053 | [4] 0.041 | [5] 0.018 | [6] 0.088 | [7] 0.052 | [8] -0.043 | [9] 0.017 | [10] -0.076 | [11] -0.006 | [12] 0.014 | [13] -0.002 | [14] -0.049 | [15] -0.081 | [16] -0.118 | [17] -0.017 | [18] -0.025 | [19] 0.01 | [20] -0.018

AK2 isoform 2 (UniProt P54819)
inactive: [1] 0.035 | [2] -0.015 | [3] 0.011 | [4] -0.068 | [5] -0.001 | [6] 0.068 | [7] -0.014 | [8] -0.038 | [9] 0.012 | [10] 0.002 | [11] -0.003 | [12] 0.011 | [13] -0.019 | [14] -0.002 | [15] -0.04 | [16] -0.02 | [17] -0.049 | [18] 0.107 | [19] -0.025 | [20] -0.003

AFTPH isoform 9 (UniProt Q6ULP2)
inactive: [1] -0.026 | [2] -0.004 | [3] -0.115 | [4] 0.004 | [5] 0.025 | [6] -0.073 | [7] 0.01 | [8] 0.082 | [9] -0.049 | [10] -0.023 | [11] -0.071 | [12] -0.009 | [13] 0.003 | [14] -0.035 | [15] -0.011 | [16] 0.032 | [17] 0.009 | [18] 0.036 | [19] 0.05 | [20] 0.052

ALG10B (UniProt Q5I7T1)
inactive: [1] 0.022 | [2] -0.021 | [3] 0.094 | [4] -0.101 | [5] 0.087 | [6] -0.067 | [7] 0.026 | [8] 0.043 | [9] 0.19 | [10] 0.058 | [11] 0.01 | [12] 0.049 | [13] -0.023 | [14] 0.107 | [15] -0.013 | [16] 0.111 | [17] -0.037 | [18] -0.087 | [19] 0.092 | [20] -0.009

AHNAK (UniProt Q09666)
inactive: [1] 0.012 | [2] 0 | [3] -0.061 | [4] 0.002 | [5] 0.069 | [6] 0.16 | [7] -0.04 | [8] 0.016 | [9] -0.015 | [10] 0.056 | [11] -0.091 | [12] 0.02 | [13] -0.05 | [14] -0.068 | [15] -0.001 | [16] 0.001 | [17] -0.004 | [18] -0.039 | [19] 0.026 | [20] -0.006

Fetched one by one from the list above, 2 records:
AHCYL2 (UniProt Q96HN2)
inactive: [1] 0.008 | [2] -0.028 | [3] 0.165 | [4] -0.085 | [5] 0 | [6] 0.101 | [7] 0.013 | [8] -0.013 | [9] -0.013 | [10] -0.014 | [11] -0.038 | [12] -0.017 | [13] 0.047 | [14] -0.02 | [15] -0.025 | [16] -0.048 | [17] -0.014 | [18] -0.018 | [19] -0.024 | [20] 0.007

AGTRAP (UniProt Q6RW13)
inactive: [1] 0.009 | [2] -0.042 | [3] -0.125 | [4] -0.062 | [5] -0.023 | [6] -0.059 | [7] 0.066 | [8] 0.016 | [9] -0.051 | [10] 0.13 | [11] -0.027 | [12] 0.097 | [13] 0.01 | [14] -0.108 | [15] 0 | [16] 0.075 | [17] 0.006 | [18] -0.148 | [19] -0.082 | [20] -0.023

Later entries

ADSL (UniProt P30566)
inactive: [1] 0.036 | [2] 0.019 | [3] 0.015 | [4] -0.037 | [5] -0.027 | [6] 0.095 | [7] -0.025 | [8] -0.046 | [9] 0.012 | [10] -0.022 | [11] -0.002 | [12] 0.012 | [13] -0.006 | [14] 0.038 | [15] -0.025 | [16] -0.022 | [17] -0.005 | [18] -0.021 | [19] -0.029 | [20] -0.011

ALDOA isoform 2 (UniProt P04075)
inactive: [1] 0.052 | [2] 0.015 | [3] 0.026 | [4] -0.006 | [5] 0.042 | [6] 0.081 | [7] 0.008 | [8] -0.062 | [9] 0.035 | [10] -0.002 | [11] 0.036 | [12] 0.024 | [13] 0.015 | [14] 0.037 | [15] -0.065 | [16] 0.034 | [17] 0.002 | [18] -0.078 | [19] -0.015 | [20] -0.004

ALG13 (UniProt Q9NP73)
inactive: [1] 0.012 | [2] -0.002 | [3] -0.019 | [4] -0.042 | [5] -0.072 | [6] -0.114 | [7] -0.052 | [8] -0.082 | [9] -0.022 | [10] 0.163 | [11] 0.032 | [12] -0.012 | [13] 0.051 | [14] -0.036 | [15] -0.17 | [16] -0.003 | [17] 0.033 | [18] 0.012 | [19] -0.061 | [20] 0.051

AFG3L2 (UniProt Q9Y4W6)
inactive: [1] -0.005 | [2] -0.037 | [3] -0.01 | [4] -0.058 | [5] -0.099 | [6] -0.154 | [7] 0.004 | [8] 0.003 | [9] 0.021 | [10] 0.026 | [11] -0.018 | [12] -0.002 | [13] 0.011 | [14] 0.05 | [15] -0.059 | [16] 0.007 | [17] 0.007 | [18] -0.015 | [19] -0.065 | [20] 0.021

AFP (UniProt P02771)
inactive: [1] 0.007 | [2] 0.268 | [3] 0.21 | [4] 0.011 | [5] 0.245 | [6] 0.175 | [7] 0.08 | [8] -0.239 | [9] 0.075 | [10] -0.331 | [11] -0.095 | [12] 0.702 | [13] 0.624 | [14] 0.087 | [15] -0.089 | [16] 0.135 | [17] -0.186 | [18] -0.262 | [19] -0.187 | [20] -0.142

ADSS2 (UniProt P30520)
inactive: [1] 0.006 | [2] -0.008 | [3] -0.059 | [4] -0.038 | [5] 0.001 | [6] 0.044 | [7] 0.001 | [8] -0.053 | [9] -0.011 | [10] 0.015 | [11] 0.037 | [12] 0.001 | [13] 0.011 | [14] 0.025 | [15] -0.117 | [16] 0.012 | [17] -0.014 | [18] -0.046 | [19] -0.027 | [20] 0

ALYREF (UniProt Q86V81)
inactive: [1] -0.123 | [2] 0.019 | [3] 0.145 | [4] 0.096 | [5] 0.168 | [6] 0.216 | [7] 0.089 | [8] 0.205 | [9] 0.039 | [10] -0.236 | [11] 0.026 | [12] 0.003 | [13] -0.163 | [14] -0.159 | [15] 0.178 | [16] -0.051 | [17] -0.188 | [18] 0.126 | [19] -0.001 | [20] -0.167

ADI1 (UniProt Q9BV57)
inactive: [1] -0.005 | [2] -0.06 | [3] -0.072 | [4] -0.028 | [5] -0.01 | [6] 0.004 | [7] 0.019 | [8] 0.083 | [9] -0.045 | [10] -0.021 | [11] -0.031 | [12] -0.063 | [13] 0.003 | [14] -0.019 | [15] -0.04 | [16] -0.025 | [17] 0 | [18] -0.341 | [19] -0.172 | [20] 0.042

AMPD2 (UniProt Q01433)
inactive: [1] 0.045 | [2] 0.043 | [3] -0.012 | [4] -0.036 | [5] -0.014 | [6] 0.039 | [7] -0.024 | [8] -0.024 | [9] 0.029 | [10] 0.035 | [11] -0.011 | [12] -0.008 | [13] 0.01 | [14] 0.02 | [15] -0.044 | [16] -0.026 | [17] -0.001 | [18] -0.021 | [19] -0.006 | [20] 0.004
